Measured values from patent publication US8465780B2, “Borate micro emulsion and method for making the same” (Nisus Corporation, priority 2006, dated 2013).
Read-outs that look alike come from different tables or passages of the source.

Experiments:
[1] = 0.25 weight % solution, two weeks
[2] = 0.05 weight % borate, lithium hypochlorite, bright sunlight

Compound | appearance of solution after nail exposure [1] | corrosion of steel nail [1] | free chlorine concentration ([2]; 0 hr) [ppm] | free chlorine concentration ([2]; 1.5 hr) [ppm] | free chlorine concentration ([2]; 2.5 hr) [ppm]
OB(O)O [boric acid, reference compound] | turned brown | significantly corroded | – | – | –
O.O.O.O.O=BOB1OB(OB=O)OB2OB([O-])OB([O-])OB(O1)O2.[Na+].[Na+] [disodium octaborate tetrahydrate] | clear and free of corrosion by-products | free of significant corrosion | 10 | 1.0 | 0.5
